The values that follow come from publication PMC12785750.

Sequences of proteins named here, by UniProt entry; tags and fusion partners are left off. Residues count along the entry.
UniProt P08648, residues 42-1049: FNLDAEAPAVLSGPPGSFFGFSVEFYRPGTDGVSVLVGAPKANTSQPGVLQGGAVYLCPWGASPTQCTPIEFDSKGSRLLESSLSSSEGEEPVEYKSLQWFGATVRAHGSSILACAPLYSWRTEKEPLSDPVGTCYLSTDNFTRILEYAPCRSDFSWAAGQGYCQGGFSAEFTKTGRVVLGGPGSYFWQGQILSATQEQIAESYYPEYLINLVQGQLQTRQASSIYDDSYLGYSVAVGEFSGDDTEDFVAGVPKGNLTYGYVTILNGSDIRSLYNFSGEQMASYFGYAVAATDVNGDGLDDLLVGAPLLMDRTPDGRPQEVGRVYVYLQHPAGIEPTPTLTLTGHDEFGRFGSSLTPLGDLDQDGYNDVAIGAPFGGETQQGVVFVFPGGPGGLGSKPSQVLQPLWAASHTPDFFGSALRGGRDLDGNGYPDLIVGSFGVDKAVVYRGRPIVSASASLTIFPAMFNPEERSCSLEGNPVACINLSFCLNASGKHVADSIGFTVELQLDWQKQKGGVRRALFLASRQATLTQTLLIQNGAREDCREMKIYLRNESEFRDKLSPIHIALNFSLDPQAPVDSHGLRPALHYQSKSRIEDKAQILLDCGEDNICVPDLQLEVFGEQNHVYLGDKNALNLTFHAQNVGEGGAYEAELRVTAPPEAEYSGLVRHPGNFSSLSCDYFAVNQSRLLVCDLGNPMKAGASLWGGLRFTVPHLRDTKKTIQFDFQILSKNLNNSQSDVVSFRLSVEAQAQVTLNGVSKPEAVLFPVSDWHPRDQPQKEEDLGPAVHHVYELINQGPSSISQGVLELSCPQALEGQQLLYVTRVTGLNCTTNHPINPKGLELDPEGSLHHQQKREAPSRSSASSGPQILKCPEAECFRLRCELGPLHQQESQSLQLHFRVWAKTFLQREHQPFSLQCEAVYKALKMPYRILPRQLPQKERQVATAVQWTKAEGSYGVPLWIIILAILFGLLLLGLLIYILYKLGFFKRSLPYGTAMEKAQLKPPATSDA

These are yes or no findings as the source states them, for the method shown. Binding seen in cells or lysates may run through a third protein. Some results given as binding are weak or reduced against the parent protein; the word gives no strength.

The assay has as its target Integrin alpha-5 (ITGA5) (UniProt P08648). Nature of the assay: co-IP; cell protein extracts in Co-IP Lysis Buffer, pre-cleared with magnetic beads at 4 °C for 1 h; target-specific antibodies overnight at 4 °C; Protein A/G magnetic beads 4 h at 4 °C; Western blot; cells and precipitated protein not stated. (Immunoblotting shows a protein as a band on a membrane.)

B1: microfibril-associated protein 5 (MFAP5) (protein, UniProt Q13361 22-173)
chain: IPLGVNSQRGDDVTQATPETFTEDPNLVNDPATDETVLAVLADIAPSTDDLASLSEKNTTAECWDEKFTCTRLYSVHRPVKQCIHQLCFTSLRRMYIVNKEICSRLVCKEHEAMKDELCRQMAGLPPRRLRRSNYFRLPPCENVDLQRPNGL
Turning to B1, the binding entry is given as “binds”.
